# Library screening results

The filed quantity is “Percent Effect” (%).
How 0% and 100% were set is not recorded. Most values in the screen are low, and negative values occur.
The compounds are a random part of those screened.

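Assay on Mycobacterium tuberculosis, filed only as a heat shock assay from Cornell; the read-out is not stated. The concentration is filed as 10 mM, unlikely as a test dose, so the dose is not known. Direction is inferred from retests: higher values go with stronger inhibition. Size under these conditions: about 69,000 compounds, about 930 of them at 50% or above in at least one test.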

For CCOCc1cnc2n1CCN(C(=O)c1cn(C)c3ccccc13)C2C (stereo not given) the result was 8.997%. COCCN1CCCC2(CCN(c3ccsc3)C2=O)C1.O=C(O)C(F)(F)F (stereo not given) read -8.185%. For COc1cc(CNC2CCc3nc(C)nn3C2)cc2c1OCCO2 (stereo not given) the result was 3.777%. Cc1noc(C)c1CN1CCN(CCN(C)C)c2ncccc2C1.O=C(O)C(F)(F)F.O=C(O)C(F)(F)F.O=C(O)C(F)(F)F read -28.33%. Cc1ccc(C(C)(C)CNC(=O)NC(C)Cn2cncn2)cc1 (stereo not given) gave 13%. Cc1ncnc(NCC(C)N(C)c2ccccc2)c1C (stereo not given) read -10.39%.

For O=C(O)C(F)(F)F.[H][C@@]12CCN(C(=O)c3ncccn3)C[C@]1(COc1ccccn1)CCO2 the result was -12.57%. For CCOC(=O)CN1CCC2(CC1)CC(=O)c1ccc3ccccc3c1O2 the result was 27.55%. CC(C)N1CCC(c2nccnc2Nc2cnccn2)CC1 read -17.4%. CC(O)CC(C)(C)CNC(=O)Nc1cnn(-c2ccccc2F)c1 (stereo not given) read -3.307%. With CCN(C)c1ncnc2c1CCN(C(=O)NCc1cccnc1)CC2.O=C(O)C(F)(F)F the screen gave -19.5%. For Cl.Cl.Cl.c1cncc(CNc2ccc3nc(C4CCNCC4)nn3c2)c1 the result was 2.451%.

Result for COCC(=O)N1CCC2(COCc3cnc(N4CCOCC4)nc32)C1 (stereo not given) was -2.758%. Result for O=C(CN1CCCC1Cn1cncn1)Nc1ccnn1C1CCCC1 (stereo not given) was -1.322%. With Cc1ncsc1C(=O)NCCSCCCO the screen gave 2.467%. COCCN(C)C(=O)c1ccccc1-n1cccn1 gave -8.098%. O=C1CCC2(CCOC2)CN1Cc1nc2ccc(Cl)cc2[nH]1 (stereo not given) read -3.157%. With CN(CC1CCOCC1)C(C(=O)O)c1cccc(F)c1F (stereo not given) the screen gave -5.102%.

Result for CCc1cc(CN(C)C(=O)CN2CC3(CCNCC3)OC2=O)on1 was -6.154%. For CN(c1cccc(C#N)c1)S(=O)(=O)c1cc(C(=O)O)ccc1Cl the result was -18.88%. Result for CC1CCN(c2nc3c(cnn3-c3ccccc3)c(=O)[nH]2)CC1 was 7.023%. With CC(C)Oc1cccc(CN(C)C(=O)Nc2cccn(C)c2=O)c1 the screen gave 4.084%. O=C(Cc1cccs1)NCC1COCc2c(-c3ccoc3)nnn2C1 (stereo not given) read -32.67%. For CC(C)c1cc(C(=O)N2CCN(c3ccncc3)CC2)n(C)n1 the result was -1.819%.

For O=C(CSc1ccc2c(c1)OCCO2)NS(=O)(=O)c1cc(F)ccc1F the result was 2.059%. O=C(O)C(F)(F)F.O=S(=O)(C1CC1)N1CCC[C@]2(C[C@@H](Oc3ccccn3)CO2)C1 read -29.31%. With [H][C@@]12CN(C(=O)[C@H]3CCCO3)C[C@]1([H])C(=O)N(CC(C)C)C2 the screen gave -15.19%. O=C(O)C(F)(F)F.O=C(O)C(F)(F)F.[H][C@@]12C[C@H](C(=O)NCC3CC3)N(C)[C@]1([H])CN(Cc1ccc(C)o1)C2 read -27.97%. Result for O=C(O)C(F)(F)F.[H][C@@]12CN(Cc3csc(C)n3)C[C@]1([H])CN(C(=O)c1cnccn1)C2 was -51.71%. Result for CC1(COc2ccccc2)NCCc2[nH]cnc21 (stereo not given) was -31.19%.

CCNC(=O)NC1CN(CC(=O)NCc2ccccc2C)C[C@@H]1OC (stereo not given in full) gave -17.25%. Result for Cc1csc(N2CCN(CCCN3CCCC3=O)CC2)n1 was 22.74%. With OC(CNCCn1cccn1)c1ccc2c(c1)OCCO2 (stereo not given) the screen gave -3.701%. Result for CN(C)c1nccc(NCc2cc(-c3ccco3)n[nH]2)n1 was -14.13%. CCC(=O)N1CCCCC1c1nc(O)c2c(n1)CN(S(=O)(=O)CC)CC2 (stereo not given) read -27.18%. Cn1ncc2c1C(COCC1CC1)CN(Cc1ccoc1)C2 (stereo not given) gave -4.927%.

CN(CCc1ccccn1)C(=O)CCC1CCCN(c2ncccn2)C1 (stereo not given) gave -18.51%. For [H][C@]12CN(Cc3cccc(OC)c3)CCN1C(=O)N(CCOC)C2 the result was -43.42%. Result for Cc1cnc(-c2nc(C3CCN(Cc4ccccc4O)CC3)no2)cn1 was -1.206%. CNC(=O)c1ccc(=O)n(Cc2csc(C(C)(C)C)n2)c1 gave 14.51%. For COc1ccc(CNC2CCCc3nc(N(C)C)ncc32)c(OC)c1 (stereo not given) the result was -11.39%. For [H][C@@]12C[C@@H](O)C[C@]1([H])CN(C(=O)c1cc(C3CCCCC3)no1)C2 the result was 26.92%.

Cc1cc(CCC(=O)N2CCOCC2)ccc1Br read -3.54%. CCC(C)(CCO)NC(=O)c1ccon1 (stereo not given) gave -32.7%.

The first 4 entries again:

{"compound": "CCOCc1cnc2n1CCN(C(=O)c1cn(C)c3ccccc13)C2C", "stereo": "stereo not given", "Percent Effect": 8.997}
{"compound": "COCCN1CCCC2(CCN(c3ccsc3)C2=O)C1.O=C(O)C(F)(F)F", "stereo": "stereo not given", "Percent Effect": -8.185}
{"compound": "COc1cc(CNC2CCc3nc(C)nn3C2)cc2c1OCCO2", "stereo": "stereo not given", "Percent Effect": 3.777}
{"compound": "Cc1noc(C)c1CN1CCN(CCN(C)C)c2ncccc2C1.O=C(O)C(F)(F)F.O=C(O)C(F)(F)F.O=C(O)C(F)(F)F", "Percent Effect": -28.33}

From ChEMBL document CHEMBL3988442, “University of Dundee, Small-Polar-MMV Screening Library” (2021).